Here are results for 32 targets from the supplement of paper PMC10849652.

Amino acid sequences for entries named in this document (tags omitted). A change or cut given only in a name is not applied to a line headed by its entry.
UniProt Q9BXS6: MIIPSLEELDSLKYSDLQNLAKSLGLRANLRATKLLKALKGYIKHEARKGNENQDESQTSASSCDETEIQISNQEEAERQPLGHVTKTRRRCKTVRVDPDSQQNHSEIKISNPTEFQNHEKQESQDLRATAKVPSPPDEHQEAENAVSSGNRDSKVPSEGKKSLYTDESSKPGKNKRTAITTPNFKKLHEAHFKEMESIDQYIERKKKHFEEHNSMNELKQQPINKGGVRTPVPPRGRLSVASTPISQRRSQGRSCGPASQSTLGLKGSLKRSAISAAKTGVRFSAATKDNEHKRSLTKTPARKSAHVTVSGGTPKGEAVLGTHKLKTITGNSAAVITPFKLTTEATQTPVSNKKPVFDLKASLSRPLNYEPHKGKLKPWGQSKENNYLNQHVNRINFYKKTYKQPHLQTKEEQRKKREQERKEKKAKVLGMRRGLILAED
UniProt Q9Y5A7: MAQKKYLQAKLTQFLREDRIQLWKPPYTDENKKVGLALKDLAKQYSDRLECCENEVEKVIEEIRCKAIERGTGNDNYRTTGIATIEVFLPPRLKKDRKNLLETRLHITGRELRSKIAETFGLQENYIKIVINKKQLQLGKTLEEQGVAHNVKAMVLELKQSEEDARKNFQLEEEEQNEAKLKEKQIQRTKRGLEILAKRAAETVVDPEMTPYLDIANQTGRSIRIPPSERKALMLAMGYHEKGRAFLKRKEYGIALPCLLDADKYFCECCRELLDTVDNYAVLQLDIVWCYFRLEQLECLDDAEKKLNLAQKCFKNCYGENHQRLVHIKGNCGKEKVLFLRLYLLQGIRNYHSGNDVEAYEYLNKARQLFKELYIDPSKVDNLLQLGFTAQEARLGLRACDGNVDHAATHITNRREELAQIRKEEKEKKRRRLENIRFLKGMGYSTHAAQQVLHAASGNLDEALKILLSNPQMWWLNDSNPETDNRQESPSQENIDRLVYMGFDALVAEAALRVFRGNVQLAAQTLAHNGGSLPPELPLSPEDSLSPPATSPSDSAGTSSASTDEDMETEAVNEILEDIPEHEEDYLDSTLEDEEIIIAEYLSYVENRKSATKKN
UniProt Q8N543: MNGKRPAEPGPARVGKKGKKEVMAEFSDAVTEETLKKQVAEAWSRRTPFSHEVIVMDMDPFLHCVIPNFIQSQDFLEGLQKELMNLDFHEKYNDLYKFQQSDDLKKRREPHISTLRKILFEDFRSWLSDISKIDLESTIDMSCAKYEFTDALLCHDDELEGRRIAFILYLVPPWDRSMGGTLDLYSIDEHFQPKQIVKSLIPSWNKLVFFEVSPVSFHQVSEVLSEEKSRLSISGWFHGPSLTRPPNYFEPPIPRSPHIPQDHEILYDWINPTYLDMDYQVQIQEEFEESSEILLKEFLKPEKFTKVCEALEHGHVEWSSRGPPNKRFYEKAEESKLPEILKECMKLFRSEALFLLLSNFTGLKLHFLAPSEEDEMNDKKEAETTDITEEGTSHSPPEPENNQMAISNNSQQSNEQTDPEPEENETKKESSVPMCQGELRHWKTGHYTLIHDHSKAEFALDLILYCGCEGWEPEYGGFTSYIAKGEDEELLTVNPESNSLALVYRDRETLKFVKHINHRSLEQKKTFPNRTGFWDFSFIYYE
UniProt Q8N1F7: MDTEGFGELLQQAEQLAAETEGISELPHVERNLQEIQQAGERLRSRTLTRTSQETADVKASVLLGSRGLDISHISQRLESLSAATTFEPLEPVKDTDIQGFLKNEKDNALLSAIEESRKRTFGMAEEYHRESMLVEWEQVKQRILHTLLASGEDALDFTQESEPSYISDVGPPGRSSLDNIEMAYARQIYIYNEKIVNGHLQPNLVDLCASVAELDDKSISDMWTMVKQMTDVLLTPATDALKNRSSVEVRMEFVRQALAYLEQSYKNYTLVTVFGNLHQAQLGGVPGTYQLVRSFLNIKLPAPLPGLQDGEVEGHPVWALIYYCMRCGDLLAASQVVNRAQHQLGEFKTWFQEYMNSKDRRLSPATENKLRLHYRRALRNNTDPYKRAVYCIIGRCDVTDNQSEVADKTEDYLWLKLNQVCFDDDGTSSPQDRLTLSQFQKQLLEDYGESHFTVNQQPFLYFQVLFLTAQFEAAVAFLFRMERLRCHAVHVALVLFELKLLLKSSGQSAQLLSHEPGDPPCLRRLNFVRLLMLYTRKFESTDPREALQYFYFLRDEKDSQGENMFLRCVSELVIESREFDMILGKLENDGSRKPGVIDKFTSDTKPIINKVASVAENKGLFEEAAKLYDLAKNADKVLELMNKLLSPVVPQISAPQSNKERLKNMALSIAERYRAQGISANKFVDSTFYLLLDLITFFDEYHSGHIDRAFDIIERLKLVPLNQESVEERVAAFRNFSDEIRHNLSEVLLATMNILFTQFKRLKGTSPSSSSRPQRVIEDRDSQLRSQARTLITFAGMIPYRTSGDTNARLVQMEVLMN
UniProt Q96G74: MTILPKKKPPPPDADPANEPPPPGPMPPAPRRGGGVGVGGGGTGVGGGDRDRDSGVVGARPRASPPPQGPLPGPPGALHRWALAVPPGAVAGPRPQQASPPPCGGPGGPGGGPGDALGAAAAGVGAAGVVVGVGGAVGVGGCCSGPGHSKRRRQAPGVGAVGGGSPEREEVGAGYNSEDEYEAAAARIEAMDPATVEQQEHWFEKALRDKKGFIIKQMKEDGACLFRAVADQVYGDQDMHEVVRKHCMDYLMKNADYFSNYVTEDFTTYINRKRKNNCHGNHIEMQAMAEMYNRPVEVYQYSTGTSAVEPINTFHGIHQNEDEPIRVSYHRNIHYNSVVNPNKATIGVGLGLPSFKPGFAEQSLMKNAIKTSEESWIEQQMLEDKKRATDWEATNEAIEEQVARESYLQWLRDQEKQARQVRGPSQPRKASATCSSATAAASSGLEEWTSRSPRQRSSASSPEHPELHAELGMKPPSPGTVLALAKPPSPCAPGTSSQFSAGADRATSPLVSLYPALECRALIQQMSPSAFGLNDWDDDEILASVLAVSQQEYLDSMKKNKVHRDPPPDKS
UniProt O14841: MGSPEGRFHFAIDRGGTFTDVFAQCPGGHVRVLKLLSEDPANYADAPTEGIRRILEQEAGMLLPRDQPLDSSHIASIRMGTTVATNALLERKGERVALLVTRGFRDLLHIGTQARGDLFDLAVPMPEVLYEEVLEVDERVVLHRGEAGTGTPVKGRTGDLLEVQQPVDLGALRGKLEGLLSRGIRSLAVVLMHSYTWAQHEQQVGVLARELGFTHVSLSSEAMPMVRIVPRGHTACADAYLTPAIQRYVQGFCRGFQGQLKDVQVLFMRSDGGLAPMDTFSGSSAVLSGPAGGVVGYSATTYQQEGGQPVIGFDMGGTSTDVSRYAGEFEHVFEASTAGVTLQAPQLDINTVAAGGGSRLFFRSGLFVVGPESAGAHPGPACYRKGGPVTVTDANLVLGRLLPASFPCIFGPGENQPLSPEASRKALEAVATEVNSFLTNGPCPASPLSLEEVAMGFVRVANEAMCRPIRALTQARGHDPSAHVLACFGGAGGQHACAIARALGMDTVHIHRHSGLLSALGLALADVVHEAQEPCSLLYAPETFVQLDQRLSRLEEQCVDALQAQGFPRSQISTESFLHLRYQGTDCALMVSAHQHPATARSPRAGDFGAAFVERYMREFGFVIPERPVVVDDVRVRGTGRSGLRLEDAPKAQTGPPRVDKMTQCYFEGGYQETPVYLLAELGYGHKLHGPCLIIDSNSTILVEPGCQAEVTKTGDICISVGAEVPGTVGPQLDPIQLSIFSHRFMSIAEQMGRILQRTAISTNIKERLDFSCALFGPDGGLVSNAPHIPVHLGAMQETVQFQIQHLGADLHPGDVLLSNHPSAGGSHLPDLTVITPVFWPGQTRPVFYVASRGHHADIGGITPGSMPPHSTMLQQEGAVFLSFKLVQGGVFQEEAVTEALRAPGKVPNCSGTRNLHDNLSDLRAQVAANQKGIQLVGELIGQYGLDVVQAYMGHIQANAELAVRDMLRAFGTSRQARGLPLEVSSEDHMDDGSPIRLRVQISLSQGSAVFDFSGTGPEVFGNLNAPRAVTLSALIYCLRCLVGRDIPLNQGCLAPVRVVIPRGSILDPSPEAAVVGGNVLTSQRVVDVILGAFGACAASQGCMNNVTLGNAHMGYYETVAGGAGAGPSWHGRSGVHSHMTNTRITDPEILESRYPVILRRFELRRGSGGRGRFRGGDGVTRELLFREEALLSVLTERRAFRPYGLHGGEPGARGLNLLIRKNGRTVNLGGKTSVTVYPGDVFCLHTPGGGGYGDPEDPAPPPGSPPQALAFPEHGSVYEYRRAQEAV
UniProt P53384: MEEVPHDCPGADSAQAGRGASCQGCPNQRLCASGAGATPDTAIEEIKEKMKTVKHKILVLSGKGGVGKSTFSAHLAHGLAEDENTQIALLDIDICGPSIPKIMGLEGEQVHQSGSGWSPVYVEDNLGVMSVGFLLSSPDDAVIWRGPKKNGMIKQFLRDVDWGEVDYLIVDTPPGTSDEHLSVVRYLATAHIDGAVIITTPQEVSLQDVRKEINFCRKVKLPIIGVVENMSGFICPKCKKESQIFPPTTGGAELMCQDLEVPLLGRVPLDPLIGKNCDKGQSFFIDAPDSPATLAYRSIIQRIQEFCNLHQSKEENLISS
UniProt Q9BRJ7: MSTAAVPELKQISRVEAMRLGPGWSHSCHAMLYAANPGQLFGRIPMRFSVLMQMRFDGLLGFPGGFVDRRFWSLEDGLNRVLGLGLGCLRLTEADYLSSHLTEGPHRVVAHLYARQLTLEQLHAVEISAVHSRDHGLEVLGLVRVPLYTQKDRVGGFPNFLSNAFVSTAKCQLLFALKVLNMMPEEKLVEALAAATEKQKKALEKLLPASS
UniProt O95989: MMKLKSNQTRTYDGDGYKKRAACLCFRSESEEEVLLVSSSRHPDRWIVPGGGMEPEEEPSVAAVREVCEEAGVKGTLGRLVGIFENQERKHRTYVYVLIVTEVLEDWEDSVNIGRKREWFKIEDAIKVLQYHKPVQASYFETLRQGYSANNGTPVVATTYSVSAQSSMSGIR
UniProt Q02818: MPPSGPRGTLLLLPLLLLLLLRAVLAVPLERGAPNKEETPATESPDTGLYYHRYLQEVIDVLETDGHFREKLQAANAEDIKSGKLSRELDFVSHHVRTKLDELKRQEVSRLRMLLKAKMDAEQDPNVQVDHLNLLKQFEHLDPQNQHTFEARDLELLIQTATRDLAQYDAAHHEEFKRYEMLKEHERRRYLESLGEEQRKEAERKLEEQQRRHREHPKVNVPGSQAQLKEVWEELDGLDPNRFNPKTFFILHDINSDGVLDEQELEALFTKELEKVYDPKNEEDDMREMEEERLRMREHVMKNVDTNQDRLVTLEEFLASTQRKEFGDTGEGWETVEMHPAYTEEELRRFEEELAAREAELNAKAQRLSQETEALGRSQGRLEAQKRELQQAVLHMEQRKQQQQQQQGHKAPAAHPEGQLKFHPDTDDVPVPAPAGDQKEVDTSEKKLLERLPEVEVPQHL
UniProt Q8WUM0: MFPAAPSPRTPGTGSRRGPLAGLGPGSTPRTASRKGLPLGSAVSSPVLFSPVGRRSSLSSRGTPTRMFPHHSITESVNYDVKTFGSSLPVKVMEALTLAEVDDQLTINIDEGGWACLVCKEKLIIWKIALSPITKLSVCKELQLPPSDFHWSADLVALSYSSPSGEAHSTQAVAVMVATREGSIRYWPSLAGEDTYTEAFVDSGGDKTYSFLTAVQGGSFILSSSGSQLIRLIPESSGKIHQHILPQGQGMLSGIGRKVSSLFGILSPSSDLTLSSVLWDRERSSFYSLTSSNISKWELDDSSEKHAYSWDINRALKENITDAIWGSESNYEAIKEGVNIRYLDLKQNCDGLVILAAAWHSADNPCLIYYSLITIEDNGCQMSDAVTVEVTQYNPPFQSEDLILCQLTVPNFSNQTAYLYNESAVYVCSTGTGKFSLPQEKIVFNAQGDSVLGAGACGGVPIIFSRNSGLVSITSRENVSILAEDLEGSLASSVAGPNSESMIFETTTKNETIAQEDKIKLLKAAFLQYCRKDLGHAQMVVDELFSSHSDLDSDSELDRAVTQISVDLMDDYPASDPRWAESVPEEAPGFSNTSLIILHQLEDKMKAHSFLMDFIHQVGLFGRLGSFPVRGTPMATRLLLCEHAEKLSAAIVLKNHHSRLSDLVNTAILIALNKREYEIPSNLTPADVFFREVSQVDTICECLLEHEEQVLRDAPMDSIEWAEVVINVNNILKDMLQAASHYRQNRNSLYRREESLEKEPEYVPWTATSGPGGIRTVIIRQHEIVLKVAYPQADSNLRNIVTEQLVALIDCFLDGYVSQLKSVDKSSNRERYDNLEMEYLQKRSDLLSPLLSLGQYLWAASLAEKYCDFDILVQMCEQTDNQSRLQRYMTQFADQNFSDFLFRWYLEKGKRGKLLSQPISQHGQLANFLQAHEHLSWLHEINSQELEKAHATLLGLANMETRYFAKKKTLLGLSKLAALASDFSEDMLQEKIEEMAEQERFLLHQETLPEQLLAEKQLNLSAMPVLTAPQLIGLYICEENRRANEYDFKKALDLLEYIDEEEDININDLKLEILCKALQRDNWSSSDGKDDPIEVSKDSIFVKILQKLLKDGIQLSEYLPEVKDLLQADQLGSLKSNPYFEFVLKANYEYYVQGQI

The list shows a part of the results.

Compound in one assay: Cn1cc(-c2ccc3c(c2)CCN3C(=O)Cc2cccc(C(F)(F)F)c2)c2c(N)ncnc21
The assay is described as follows: log2 fold change, soluble protein after heating vs DMSO (PISA); higher = thermal stabilisation; K562 cells, 10 uM, 30 min; active = over 0.2 and 3.5 SD of the protein, either way, in both replicates (recomputed). The procedure, abridged:
(§1)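 Soluble protein was quantified by TMTpro 16plex LC-MS/MS after channel sums were equalised. It was obtained as the supernatant after 21,000xg for 90 min from pooled aliquots of K562 cells (2×10^6 cells/mL, 10 μM compound, 30 min) heated for 3 min across 48°C-58°C and extracted in PBS with 0.5% NP-40 at 4°C. Thermal stability values are relative to control samples and come from duplicates. They are given as log2 fold changes.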
In the case of OSBPL8 (UniProt Q9BZF1), the log2 fold change was inactive: -0.225.

In the case of OXCT1 (UniProt P55809), the log2 fold change is inactive: 0.028.

In the case of NUDT5 (UniProt Q9UKK9), the log2 fold change was inactive: -0.011.

For NUP214 isoform 5 (UniProt P35658), the log2 fold change was inactive: -0.091.

As to NT5DC1 (UniProt Q5TFE4), the log2 fold change is inactive: 0.045.

Turning to NUSAP1 (UniProt Q9BXS6), the log2 fold change is inactive: -0.214.

For NUB1 (UniProt Q9Y5A7), the log2 fold change is inactive: -0.028.

With NT5C2 (UniProt P49902), the log2 fold change was inactive: 0.065.

With NUP85 (UniProt Q9BW27), the log2 fold change is inactive: -0.009.

With OGFOD1 (UniProt Q8N543), the log2 fold change is inactive: 0.01.

On to ORC3 isoform 2 (UniProt Q9UBD5), for which the log2 fold change was inactive: 0.067.

In the case of NUP93 (UniProt Q8N1F7), the log2 fold change was inactive: -0.024.

For the target OTUD5 isoform 5 (UniProt Q96G74), the log2 fold change is inactive: 0.035.

With OPLAH (UniProt O14841), the log2 fold change is inactive: 0.053.

For OIP5 (UniProt O43482), the log2 fold change was inactive: 0.037.

For NUDT4 (UniProt Q9NZJ9), the log2 fold change is inactive: 0.024.

As to NUDT21 (UniProt O43809), the log2 fold change was inactive: 0.029.

NT5C (UniProt Q8TCD5): the log2 fold change is inactive: 0.005.

As for OS9 (UniProt Q13438), the log2 fold change was inactive: -0.014.

Consider NUP155 (UniProt O75694), for which the log2 fold change is inactive: 0.094.

For the target NUP37 (UniProt Q8NFH4), the log2 fold change was inactive: -0.013.

Regarding NUBP1 (UniProt P53384), the log2 fold change is inactive: 0.068.

Regarding NUCKS1 (UniProt Q9H1E3), the log2 fold change was inactive: 0.005.

With NUDT16L1 (UniProt Q9BRJ7), the log2 fold change is inactive: 0.015.

In the case of OTC (UniProt P00480), the log2 fold change is inactive: -0.166.

Regarding NUDT3 (UniProt O95989), the log2 fold change was inactive: -0.03.

As to NUDC (UniProt Q9Y266), the log2 fold change is inactive: 0.063.

NUCB1 (UniProt Q02818): the log2 fold change was inactive: 0.007.

On to NUP42 (UniProt O15504), for which the log2 fold change is inactive: -0.385.

In the case of NUP133 (UniProt Q8WUM0), the log2 fold change was inactive: -0.051.

On to ODR4 (UniProt Q5SWX8), for which the log2 fold change was inactive: 0.022.

In the case of NUBPL (UniProt Q8TB37), the log2 fold change was inactive: 0.103.

Compound in another assay: Cn1cc(-c2ccc3nnc(C(F)(F)c4ccc5ncccc5c4)n3n2)cn1
Described as above. The procedure, abridged:
as §1
As for OSBPL8 (UniProt Q9BZF1), the log2 fold change is inactive: -0.093.

Consider OXCT1 (UniProt P55809), for which the log2 fold change is inactive: 0.015.

NUDT5 (UniProt Q9UKK9): the log2 fold change was inactive: -0.054.

With NUP214 isoform 5 (UniProt P35658), the log2 fold change was inactive: -0.038.

Turning to NT5DC1 (UniProt Q5TFE4), the log2 fold change was inactive: 0.069.

Turning to NUSAP1 (UniProt Q9BXS6), the log2 fold change is inactive: -0.093.

Take NUB1 (UniProt Q9Y5A7): the log2 fold change is inactive: -0.01.

For NT5C2 (UniProt P49902), the log2 fold change is inactive: 0.024.

Regarding NUP85 (UniProt Q9BW27), the log2 fold change is inactive: -0.002.

Turning to OGFOD1 (UniProt Q8N543), the log2 fold change was inactive: 0.078.

For the target ORC3 isoform 2 (UniProt Q9UBD5), the log2 fold change is inactive: 0.109.

For the target NUP93 (UniProt Q8N1F7), the log2 fold change was inactive: -0.047.

Turning to OTUD5 isoform 5 (UniProt Q96G74), the log2 fold change was inactive: -0.151.

Consider OPLAH (UniProt O14841), for which the log2 fold change was inactive: 0.013.

Turning to OIP5 (UniProt O43482), the log2 fold change is inactive: 0.194.

For NUDT4 (UniProt Q9NZJ9), the log2 fold change is inactive: -0.01.

As for NUDT21 (UniProt O43809), the log2 fold change was inactive: -0.039.

As for NT5C (UniProt Q8TCD5), the log2 fold change was inactive: 0.001.

On to OS9 (UniProt Q13438), for which the log2 fold change is inactive: -0.009.

NUP155 (UniProt O75694): the log2 fold change is inactive: 0.025.

With NUP37 (UniProt Q8NFH4), the log2 fold change was inactive: -0.001.

As to NUBP1 (UniProt P53384), the log2 fold change was inactive: 0.07.

On to NUCKS1 (UniProt Q9H1E3), for which the log2 fold change is inactive: 0.055.

In the case of NUDT16L1 (UniProt Q9BRJ7), the log2 fold change is inactive: 0.022.

As for OTC (UniProt P00480), the log2 fold change is inactive: 0.085.

Consider NUDT3 (UniProt O95989), for which the log2 fold change was inactive: 0.049.

For NUDC (UniProt Q9Y266), the log2 fold change is inactive: 0.012.

As for NUCB1 (UniProt Q02818), the log2 fold change is inactive: -0.021.

Regarding NUP42 (UniProt O15504), the log2 fold change was inactive: -0.166.

For NUP133 (UniProt Q8WUM0), the log2 fold change is inactive: -0.049.

Take ODR4 (UniProt Q5SWX8): the log2 fold change was inactive: -0.002.

As for NUBPL (UniProt Q8TB37), the log2 fold change is inactive: 0.028.

Compound in a further assay: Cn1cncc1[C@@](N)(c1ccc(Cl)cc1)c1ccc2c(c1)c(-c1cccc(Cl)c1)cc(=O)n2C [tipifarnib]
The assay is described as above. Put shortly:
as §1
Turning to OSBPL8 (UniProt Q9BZF1), the log2 fold change was inactive: -0.117.

In the case of OXCT1 (UniProt P55809), the log2 fold change was inactive: 0.029.

With NUDT5 (UniProt Q9UKK9), the log2 fold change was inactive: 0.002.

In the case of NUP214 isoform 5 (UniProt P35658), the log2 fold change was inactive: -0.017.

Take NT5DC1 (UniProt Q5TFE4): the log2 fold change is inactive: -0.043.

Regarding NUSAP1 (UniProt Q9BXS6), the log2 fold change was inactive: 0.162.

As for NUB1 (UniProt Q9Y5A7), the log2 fold change is inactive: -0.072.

Regarding NT5C2 (UniProt P49902), the log2 fold change was inactive: 0.

With NUP85 (UniProt Q9BW27), the log2 fold change was inactive: -0.031.

Take OGFOD1 (UniProt Q8N543): the log2 fold change is inactive: -0.05.

Turning to ORC3 isoform 2 (UniProt Q9UBD5), the log2 fold change is inactive: 0.086.

Consider NUP93 (UniProt Q8N1F7), for which the log2 fold change was inactive: -0.058.

For OTUD5 isoform 5 (UniProt Q96G74), the log2 fold change is inactive: -0.031.

For the target OPLAH (UniProt O14841), the log2 fold change was inactive: 0.003.

Regarding OIP5 (UniProt O43482), the log2 fold change was inactive: 0.016.

Consider NUDT4 (UniProt Q9NZJ9), for which the log2 fold change is inactive: -0.024.

Regarding NUDT21 (UniProt O43809), the log2 fold change is inactive: -0.007.

Turning to NT5C (UniProt Q8TCD5), the log2 fold change is inactive: 0.02.

Consider OS9 (UniProt Q13438), for which the log2 fold change is inactive: 0.062.

Regarding NUP155 (UniProt O75694), the log2 fold change is inactive: -0.05.

NUP37 (UniProt Q8NFH4): the log2 fold change was inactive: -0.039.

For the target NUBP1 (UniProt P53384), the log2 fold change is inactive: -0.078.

NUCKS1 (UniProt Q9H1E3): the log2 fold change was inactive: 0.059.

As for NUDT16L1 (UniProt Q9BRJ7), the log2 fold change is inactive: -0.032.

Take OTC (UniProt P00480): the log2 fold change was inactive: 0.049.

In the case of NUDT3 (UniProt O95989), the log2 fold change is inactive: 0.039.

On to NUDC (UniProt Q9Y266), for which the log2 fold change is inactive: -0.006.

For NUCB1 (UniProt Q02818), the log2 fold change was inactive: 0.039.

Regarding NUP42 (UniProt O15504), the log2 fold change is inactive: 0.198.

As to NUP133 (UniProt Q8WUM0), the log2 fold change is inactive: 0.022.

As to ODR4 (UniProt Q5SWX8), the log2 fold change was inactive: -0.088.

For NUBPL (UniProt Q8TB37), the log2 fold change is inactive: -0.021.
